Measurements reported in the supplement of paper PMC9454738.
The other results are listed elsewhere or left out. Repeats in this data set agree poorly, so a single value says little.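 Triple-negative MDA-MB-231 breast cancer cells and their brain-metastatic MDA-MB-231BRM derivative each stably expressed empty vector, full-length GLI1 or truncated tGLI1. CellTiter-Blue measured viability at 48 h relative to 1% DMSO vehicle. Compounds reducing viability 20% more in tGLI1 cells than in vector and GLI1 cells counted as tGLI1-selective.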

How the values were obtained:
Test in all cases: cell viability relative to vehicle (DMSO) control (fraction); higher = more viable cells (less growth inhibition)
Conditions in all cases: treatment time 48 h
MDA-MB-231 GLI1 = test system: MDA-MB-231 GLI1
MDA-MB-231 Vector = test system: MDA-MB-231 Vector
MDA-MB-231 tGLI1 = test system: MDA-MB-231 tGLI1
MDA-MB-231BRM GLI1 = test system: MDA-MB-231BRM GLI1
MDA-MB-231BRM Vector = test system: MDA-MB-231BRM Vector
MDA-MB-231BRM tGLI1 = test system: MDA-MB-231BRM tGLI1

Row | SMILES | cell viability (MDA-MB-231 GLI1; 0.05 µM) | cell viability (MDA-MB-231 GLI1; 0.5 µM) | cell viability (MDA-MB-231 GLI1; 5 µM) | cell viability (MDA-MB-231 Vector; 0.05 µM) | cell viability (MDA-MB-231 Vector; 0.5 µM) | cell viability (MDA-MB-231 Vector; 5 µM) | cell viability (MDA-MB-231 tGLI1; 0.05 µM) | cell viability (MDA-MB-231 tGLI1; 0.5 µM) | cell viability (MDA-MB-231 tGLI1; 5 µM) | cell viability (MDA-MB-231BRM GLI1; 0.05 µM) | cell viability (MDA-MB-231BRM GLI1; 0.5 µM) | cell viability (MDA-MB-231BRM GLI1; 5 µM) | cell viability (MDA-MB-231BRM Vector; 0.05 µM) | cell viability (MDA-MB-231BRM Vector; 0.5 µM) | cell viability (MDA-MB-231BRM Vector; 5 µM) | cell viability (MDA-MB-231BRM tGLI1; 0.05 µM) | cell viability (MDA-MB-231BRM tGLI1; 0.5 µM) | cell viability (MDA-MB-231BRM tGLI1; 5 µM)
1 | O=C(NCc1ccccc1)c1csc(Nc2ccncn2)n1 [Thiazovivin] | 1.51 | 1.51 | 1.63 | 2.07 | 1.36 | 1.33 | 1.33 | 1.43 | 0.762 | 1.14 | 1.19 | 0.944 | 1.24 | 1.11 | 1.05 | 1.07 | 0.68 | 1.03
2 | CC(=O)O[C@H]1C(=O)[C@@]2(C)[C@H]([C@H](OC(=O)c3ccccc3)[C@]3(O)C[C@H](OC(=O)[C@H](O)[C@@H](NC(=O)c4ccccc4)c4ccccc4)C(C)=C1C3(C)C)[C@]1(OC(C)=O)CO[C@@H]1C[C@@H]2O [Paclitaxel (Taxol)] | -0.0119 | -0.0683 | -0.062 | -0.273 | -0.337 | -0.286 | -0.0628 | -0.154 | -0.132 | 0.913 | 0.809 | 0.985 | 0.909 | 0.827 | 0.852 | 0.932 | 0.821 | 0.807
3 | CC(=O)Nc1nc(C)c(-c2ccc(Cl)c(S(=O)(=O)NCCO)c2)s1 | 1.39 | 1.3 | 0.97 | 1.83 | 1.18 | 0.817 | 1.36 | 1.2 | 0.272 | 1.1 | 1.2 | 0.922 | 1.25 | 0.751 | 1.05 | 0.628 | 1.15 | 0.935
4 | O=C(Nc1cccnc1)c1cc(-c2ccnc(F)c2)ccc1OCc1ccccc1 | 2.16 | 3.04 | 1.85 | 1.25 | 1.2 | 1.05 | 1.4 | 1.47 | 1.21 | 0.849 | 0.755 | 0.653 | 0.958 | 0.723 | 0.626 | 1.14 | 1.07 | 1.05
5 | COc1ccc(S(=O)(=O)N(C(C)=O)c2ccccc2/C=C/c2cc[n+]([O-])cc2)cc1 | 1.27 | 0.254 | 0.0869 | 1.95 | 0.563 | 0.127 | 1.26 | 0.509 | 0.156 | 0.73 | 1.38 | 0.602 | 1.06 | 1.2 | 0.718 | 0.972 | 1.34 | 1.06
6 | Nc1ccc(C(=O)Nc2cccc(-c3nc(N4CCOCC4)c4oc5ncccc5c4n3)c2)cn1 | 1.1 | 1.23 | 0.368 | 0.626 | 1.13 | 0.359 | 0.507 | 1.07 | 0.306 | 1.1 | 1.04 | 0.746 | 0.596 | 0.896 | 0.722 | 0.952 | 0.963 | 0.715
7 | COc1ccc(-c2nc(N3CCOCC3)c3sc(CN(C)c4ncc(C(=O)NO)cn4)cc3n2)cn1 | -0.0209 | -0.0612 | -0.147 | 0.0223 | -0.00723 | -0.161 | -0.0404 | -0.0672 | -0.124 | 1.04 | 1.03 | 0.886 | 1.1 | 1.03 | 0.971 | 1.01 | 1.01 | 0.9
8 | COc1cc(OC)c(/C=C/S(=O)(=O)Cc2ccc(OC)c(NCC(=O)O)c2)c(OC)c1 | 1.36 | 0.953 | 0.102 | 1.97 | 0.948 | 0.115 | 1.21 | 0.913 | 0.111 | 1.12 | 1.36 | 1.08 | 1.15 | 1.24 | 1.07 | 1.01 | 1.24 | 1.07
9 | CN(C)Cc1cccc(N=C(c2ccccc2)c2c(O)[nH]c3cc(C(=O)N(C)C)ccc23)c1 | 1.49 | 0.509 | 1.56 | 2.01 | 1.2 | 1.1 | 0.549 | 1.42 | 1.41 | 1.11 | 1.12 | 0.863 | 0.712 | 1.06 | 0.501 | 0.573 | 0.832 | 0.849
10 | CCc1cccc(CC)c1NC(=O)N1Cc2[nH]nc(NC(=O)c3ccc(N4CCN(C)CC4)cc3)c2C1 | 1.36 | 1.1 | 0.148 | 1.82 | 1.03 | 0.697 | 1.3 | 1.05 | 0.598 | 1.13 | 1.08 | 0.925 | 1.13 | 0.977 | 0.904 | 1.01 | 1.08 | 0.883
11 | COc1ccc(-c2cc3c(C)nc(N)nc3n([C@H]3CC[C@H](OCCO)CC3)c2=O)cn1 | 0.869 | 0.46 | 0.243 | 0.829 | 0.577 | 0.377 | 0.991 | 0.467 | 0.302 | 0.907 | 0.974 | 0.814 | 0.926 | 0.978 | 0.771 | 1.03 | 0.923 | 0.709
12 | C#Cc1cccc(Nc2ncnc3cc(OCCOC)c(OCCO)cc23)c1 | 1.19 | 1.18 | 0.952 | 1.37 | 1.03 | 0.817 | 1.08 | 1.21 | 0.902 | 1.14 | 1.11 | 0.875 | 0.693 | 0.978 | 0.923 | 0.898 | 1.12 | 0.865
13 | CC(=O)c1c(C)c2cnc(Nc3ccc(N4CCNCC4)cn3)nc2n(C2CCCC2)c1=O | 1.15 | 1.1 | 0.598 | 1.26 | 0.888 | 0.571 | 0.874 | 1.15 | 0.491 | 0.893 | 0.882 | 0.839 | 0.874 | 0.793 | 0.922 | 0.878 | 0.822 | 0.861
14 | C[C@@]1(C(=O)Nc2ccc(F)nc2)CCCN1c1nc(Nc2cc(C3CC3)n[nH]2)c2cccn2n1 | 1.47 | 1.65 | 0.887 | 1.45 | 1.15 | 0.803 | 1.27 | 1.32 | 0.706 | 0.978 | 0.982 | 1.05 | 0.961 | 0.949 | 1.01 | 0.975 | 0.964 | 0.885

Grouped by structure, the entries above with fluorine.
Row | SMILES | cell viability (MDA-MB-231 GLI1; 0.05 µM) | cell viability (MDA-MB-231 GLI1; 0.5 µM) | cell viability (MDA-MB-231 GLI1; 5 µM) | cell viability (MDA-MB-231 Vector; 0.05 µM) | cell viability (MDA-MB-231 Vector; 0.5 µM) | cell viability (MDA-MB-231 Vector; 5 µM) | cell viability (MDA-MB-231 tGLI1; 0.05 µM) | cell viability (MDA-MB-231 tGLI1; 0.5 µM) | cell viability (MDA-MB-231 tGLI1; 5 µM) | cell viability (MDA-MB-231BRM GLI1; 0.05 µM) | cell viability (MDA-MB-231BRM GLI1; 0.5 µM) | cell viability (MDA-MB-231BRM GLI1; 5 µM) | cell viability (MDA-MB-231BRM Vector; 0.05 µM) | cell viability (MDA-MB-231BRM Vector; 0.5 µM) | cell viability (MDA-MB-231BRM Vector; 5 µM) | cell viability (MDA-MB-231BRM tGLI1; 0.05 µM) | cell viability (MDA-MB-231BRM tGLI1; 0.5 µM) | cell viability (MDA-MB-231BRM tGLI1; 5 µM)
4 | O=C(Nc1cccnc1)c1cc(-c2ccnc(F)c2)ccc1OCc1ccccc1 | 2.16 | 3.04 | 1.85 | 1.25 | 1.2 | 1.05 | 1.4 | 1.47 | 1.21 | 0.849 | 0.755 | 0.653 | 0.958 | 0.723 | 0.626 | 1.14 | 1.07 | 1.05
14 | C[C@@]1(C(=O)Nc2ccc(F)nc2)CCCN1c1nc(Nc2cc(C3CC3)n[nH]2)c2cccn2n1 | 1.47 | 1.65 | 0.887 | 1.45 | 1.15 | 0.803 | 1.27 | 1.32 | 0.706 | 0.978 | 0.982 | 1.05 | 0.961 | 0.949 | 1.01 | 0.975 | 0.964 | 0.885
